From PubChem BioAssay AID652163 (Broad Institute, 2013)
Screen size: about 360,000 compounds; about 500 (0.14%) were called active. Inconclusive means that the source gave no clear call. Such entries were picked first, then a sample of the others.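 How the source made its calls: active means mean inhibition of at least 70% across replicates, with every replicate also reaching that level; inconclusive means mean inhibition reaches 70% but some replicates fall short; inactive means mean inhibition below 70%.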

Amino acid sequences for entries named in this document (tags omitted).
UniProt P26447, whole entry, looked up: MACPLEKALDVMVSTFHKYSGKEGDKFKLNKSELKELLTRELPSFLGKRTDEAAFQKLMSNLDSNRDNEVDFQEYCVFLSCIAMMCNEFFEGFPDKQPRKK

biological target: Protein S100-A4 (Homo sapiens) (UniProt P26447); test: inhibitors of S100A4-myosin IIA peptide binding, primary screen, biochemical, fluorescence polarization, TAMRA-MyoIIA peptide (AID 652163); conditions: at 10.7 µM, active compounds read high
Outline: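 Material: S100A4 monomer protein | Medium: HEPES pH 7.2 with CaCl2, KCl, NaCl, DTT, Triton | Reagent: Labelled myosin peptide probe, 5 nM | Doses: One dose per compound | Times: 5 min incubation before reading | Benchmarks: Neutral control DMSO, positive control TFP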

Question: With `COc1ccc(C(=O)CSc2nc3ccccc3n2CC(=O)c2ccccc2)cc1` as the compound, how does the inhibition read?
Answer: Its inhibition is inconclusive: 87.3%.

Question: For `CC(=O)Nc1ccc(NC(=O)C(C)OC(=O)CCCN=C2NS(=O)(=O)c3ccccc32)cc1` (configuration not stated), which inhibition is on record?
Answer: Its inhibition is active: 136%.

Question: For `CN(C)CC/C=C1/c2ccccc2COc2ccc(CC(=O)O)cc21`, which inhibition is on record?
Answer: Its inhibition is active: 166%.

Question: How did the inhibition turn out when `O=C(O)[C@@H]1CSC2c3ccccc3C(=O)N21` (some centres not stated) was run?
Answer: The inhibition was inconclusive: 70.7%.

Question: With `Cc1ccc2nc3c(cc(C(N)=S)c(=N)n3CCCOC(C)C)c(=O)n2c1` as the compound, how does the inhibition read?
Answer: Its inhibition is inconclusive: 74.3%.

Question: How did the inhibition turn out when `Cc1ccc(S(=O)(=O)Nc2cccc(-n3cnnn3)c2)cc1C` was run?
Answer: Its inhibition is inactive: -2.42%.

Question: For `CCCN1[C@H](CO)[C@H](c2ccc(C3=CCCCC3)cc2)[C@@H]1CNS(C)(=O)=O`, which inhibition is on record?
Answer: The inhibition was active: 80.3%.

Question: With `C[C@@H]1CN([C@@H](C)CO)C(=O)Cc2cc(N(C)C)ccc2O[C@H]1CN(C)Cc1ccc(C(=O)Nc2ccccc2N)cc1` as the compound, how does the inhibition read?
Answer: The inhibition was inconclusive: 85.5%.

Question: For `C[C@H](O)C#Cc1cnc2c(c1)C(=O)N([C@@H](C)CO)C[C@H](C)[C@H](CN(C)C(=O)CC1CC1)O2`, which inhibition is on record?
Answer: The inhibition was inconclusive: 83%.

Question: Which inhibition does the source give for `C[C@@H]1CCCCO[C@H](CN(C)Cc2ccc(C(=O)O)cc2)[C@@H](C)CN([C@H](C)CO)C(=O)c2cc(NC(=O)NC3CCCCC3)ccc2O1` here?
Answer: Its inhibition is inactive: 9.52%.

Question: How did the inhibition turn out when `O=C(NCC[C@@H]1CC[C@@H](NS(=O)(=O)Cc2ccccc2)[C@@H](CO)O1)C1CC1` was run?
Answer: The inhibition was inconclusive: 129%.

Question: Which inhibition does the source give for `O=C(Nc1ccc(Cl)cc1)N[C@@H]1CC[C@H](CCNC(=O)c2ccccc2F)O[C@H]1CO` here?
Answer: Its inhibition is inconclusive: 76.5%.

Question: `CC(C)NC(=O)Nc1ccc2c(c1)C(=O)N([C@@H](C)CO)C[C@@H](C)[C@@H](CN(C)C(=O)CCC(F)(F)F)OCCCC[C@H](C)O2` was tested. Which inhibition did it give?
Answer: Its inhibition is inconclusive: 103%.

Question: How did the inhibition turn out when `COc1ccc(S(=O)(=O)Nc2ccc3c(c2)C(=O)N([C@@H](C)CO)C[C@@H](C)[C@H](CN(C)C(=O)Nc2ccccc2)OCCCC[C@@H](C)O3)cc1` was run?
Answer: The inhibition was active: 103%.

Question: How did the inhibition turn out when `CCOC(=O)C1CCN(C2=C(NS(=O)(=O)c3ccc(Cl)cc3)C(=O)c3ccccc3C2=O)CC1` was run?
Answer: Its inhibition is inconclusive: 100%.

Question: With `O=C(C[C@@H]1CC[C@H]2[C@@H](COC[C@@H](O)CN2CC2CCCCC2)O1)NCc1ccc(F)cc1` as the compound, how does the inhibition read?
Answer: The inhibition was active: 116%.

Question: How did the inhibition turn out when `O=C(C1=C[C@H](C2CCCCC2)C[C@H](OCc2ccc(CO)cc2)O1)N1CCN(Cc2ccc3c(c2)OCO3)CC1` was run?
Answer: Its inhibition is inconclusive: 86%.

Question: Which inhibition does the source give for `O=C(C1=C[C@H](C2CC2)C[C@H](OCc2ccc(CO)cc2)O1)N1CCCCCCC1` here?
Answer: The inhibition was inconclusive: 104%.

Question: With `CO[C@@H]1CN(C)C(=O)c2ccc(NC(=O)Nc3ccccc3F)cc2OC[C@H](C)N(C)C[C@@H]1C` as the compound, how does the inhibition read?
Answer: Its inhibition is inconclusive: 96.2%.

Question: Which inhibition does the source give for `O=C(C[C@@H]1CC[C@@H](NC(=O)C2CC2)[C@H](CO)O1)NCC1CC1` here?
Answer: Its inhibition is inconclusive: 75.2%.

Question: Which inhibition does the source give for `CN(Cc1ccc(F)cc1)C(=O)c1cccc(NS(=O)(=O)c2ccccc2)c1` here?
Answer: The inhibition was inconclusive: 133%.

Question: How did the inhibition turn out when `O=C(C[C@H]1CC[C@H]2[C@@H](COC[C@@H](O)CN2S(=O)(=O)c2ccccc2Cl)O1)N1CCC(Cc2ccccc2)CC1` was run?
Answer: The inhibition was inconclusive: 82.7%.

Question: With `CC(C)CC#Cc1ccc2c(c1)O[C@H](CN(C)Cc1cncnc1)[C@@H](C)CN([C@H](C)CO)S2(=O)=O` as the compound, how does the inhibition read?
Answer: The inhibition was inconclusive: 107%.

Question: With `C[C@@H]1CCCCO[C@@H](CN(C)C(=O)CCCN(C)C)[C@@H](C)CN([C@H](C)CO)C(=O)c2cc(NC(=O)NC3CCCCC3)ccc2O1` as the compound, how does the inhibition read?
Answer: The inhibition was inconclusive: 77.8%.

Question: With `COc1ccc(CN(C)C[C@@H]2Oc3ccc(NS(=O)(=O)c4cccs4)cc3C(=O)N([C@@H](C)CO)C[C@@H]2C)cc1` as the compound, how does the inhibition read?
Answer: Its inhibition is inactive: 19.8%.

Question: How did the inhibition turn out when `C/C=C/c1ccc([C@@H]2[C@@H](CO)N3CCCCN(S(=O)(=O)c4cccc(C)c4)C[C@H]23)cc1` was run?
Answer: Its inhibition is inconclusive: 82.6%.

Question: Which inhibition does the source give for `COc1ccccc1CNC(=O)C(=O)Nc1ccc(C(=O)N2CCC(C)CC2)cc1` here?
Answer: The inhibition was inactive: -8.84%.

Question: `CCCC(=O)Nc1ccc2c(c1)OC[C@H](C)NC[C@H](C)[C@H](OC)CN(C)C2=O` was tested. Which inhibition did it give?
Answer: The inhibition was active: 101%.

Question: Which inhibition does the source give for `CCN(C(=O)c1cnc(NC(C)C)cc1C(F)(F)F)c1ccc(Cl)cc1Cl` here?
Answer: Its inhibition is inactive: 1.5%.

Question: Which inhibition does the source give for `COc1ccc(C#Cc2ccc([C@@H]3[C@@H](CO)N4CCCCN(C(=O)Nc5ccc(F)cc5)C[C@@H]34)cc2)cc1` here?
Answer: The inhibition was active: 102%.

Question: With `CC(=O)N1CCCCN2[C@H](CO)[C@H](c3ccc(-c4cccc(C(=O)N(C)C)c4)cc3)[C@@H]2C1` as the compound, how does the inhibition read?
Answer: The inhibition was inconclusive: 70.5%.

Question: Which inhibition does the source give for `O=C(CSc1nnc(-c2ccc(F)cc2)o1)NC1CCCC1` here?
Answer: The inhibition was inconclusive: 73.1%.

Question: With `C[C@@H]1CCCCO[C@H](CN(C)C(=O)CCCN(C)C)[C@H](C)CN([C@@H](C)CO)C(=O)c2cc(NC(=O)Nc3cccc4ccccc34)ccc2O1` as the compound, how does the inhibition read?
Answer: Its inhibition is inconclusive: 80.1%.

Question: Which inhibition does the source give for `O=C1CC(c2ccccc2)NN1` (configuration not stated) here?
Answer: Its inhibition is inconclusive: 112%.

Question: How did the inhibition turn out when `O=C(c1ccccc1)N1CC(=O)N2[C@H](C1)[C@@H](c1ccc(-c3ccccc3)cc1)[C@@H]2CO` was run?
Answer: The inhibition was inconclusive: 73.1%.

Question: `CCCC(=O)NC(c1cccc([N+](=O)[O-])c1)c1ccc2cccnc2c1O` (configuration not stated) was tested. Which inhibition did it give?
Answer: Its inhibition is inactive: 5.61%.

Question: For `C#CCOCCOCCOCCNc1nc(N2CCN(C(=O)CCCCCCCCCCNC(=O)[C@H]([C@@H](C)CC)n3cc(CCCCN=C(N)N)nn3)CC2)nc(N2CCN(C(=O)CCCCCCCCCCNC(=O)[C@@H]([C@H](C)O)n3cc(C)nn3)CC2)n1`, which inhibition is on record?
Answer: Its inhibition is inactive: -13%.

Question: How did the inhibition turn out when `C[C@@H]1CCCCO[C@H](CN(C)C(=O)C2CCCCC2)[C@@H](C)CN([C@@H](C)CO)C(=O)c2cc(NC(=O)NC3CCCCC3)ccc2O1` was run?
Answer: The inhibition was inconclusive: 80.1%.

Question: How did the inhibition turn out when `CCC(c1nnnn1-c1ccc2c(c1)OCCO2)N1CCN(c2ncccc2C(F)(F)F)CC1` (configuration not stated) was run?
Answer: The inhibition was inconclusive: 102%.

Question: For `CCOC(=O)COc1cccc2c(=O)n(CC(=O)NCc3ccc(F)cc3)ccc12`, which inhibition is on record?
Answer: The inhibition was inconclusive: 74.1%.

Question: With `O=C(C[C@H]1C[C@H]2c3cc(NC(=O)Cc4ccncc4)ccc3O[C@H]2[C@H](CO)O1)NCc1ccccn1` as the compound, how does the inhibition read?
Answer: Its inhibition is active: 96.3%.

Question: `CC(=O)c1ccccc1NC(=O)COC(=O)/C=C/c1cccs1` was tested. Which inhibition did it give?
Answer: The inhibition was inactive: -3.67%.
